Laboratory results: PubChem BioAssay AID1159578 (Peter MacCallum Cancer Centre, 2015)

Purpose: 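Genome-wide hunt for genes controlling movement of lymphatic endothelial cells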 (primary screen)
Cell system: human lymphatic endothelial cells
Reagents: siRNA pool against human genes, 40 nM
Duration: 48 h after transfection
Measurement: 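Cells stained with dye and imaged after a scratch; covered wound area and nuclei counted, duplicates averaged, migration set against mock wells and turned into a robust z-score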
Direction: migration robust z-score: higher = faster migration into the scratch; nuclei per well: higher = more cells in the well
Rule for the call: 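Migration changed when robust z exceeds 2 or falls below -2 and mean nuclei number is at least 3300; otherwise not called changed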
Meaning of the calls: active = migration changed; inactive = no migration change, or too few cells
Here is one part, drawn at random, of about 18,000 reagents tested. Of all reagents, about 1,030 (5.7%) are marked active. 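Inactive calls also include pools with fewer than 3300 nuclei, whose migration was not assessed.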 Raw values are not corrected between plates. Not all columns of the deposit are shown.

gene symbol | migration robust z-score | nuclei per well, duplicate mean | Outcome
C6orf47 (GeneID 57827) | -0.14 | 5220 | inactive
OR5B12 (GeneID 390191) | -0.5 | 7166 | inactive
BRINP1 (GeneID 1620) | -0.46 | 5719 | inactive
GOLGA6A (GeneID 342096) | 0.34 | 6500 | inactive
SCN11A (GeneID 11280) | 0 | 5359 | inactive
SEMG1 (GeneID 6406) | -0.12 | 5719 | inactive
MITF (GeneID 4286) | -0.76 | 6350 | inactive
OR5AC2 (GeneID 81050) | -0.5 | 7531 | inactive
EFCC1 (GeneID 79825) | 1.4 | 4935 | inactive
ZNF641 (GeneID 121274) | -1.87 | 4398 | inactive
OR6K6 (GeneID 128371) | 0.52 | 6845 | inactive
PRKACG (GeneID 5568) | -1.42 | 5244 | inactive
MORC4 (GeneID 79710) | 0.6 | 7260 | inactive
MRPL58 (GeneID 3396) | -0.88 | 5404 | inactive
ARMH3 (GeneID 79591) | -0.94 | 5113 | inactive
TFAP4 (GeneID 7023) | -0.57 | 2700 | inactive
THAP7 (GeneID 80764) | -1.48 | 5009 | inactive
CPXM2 (GeneID 119587) | 0.5 | 5372 | inactive
VASN (GeneID 114990) | -0.94 | 5445 | inactive
ARL9 (GeneID 132946) | 1.7 | 5346 | inactive
GZF1 (GeneID 64412) | -0.76 | 5594 | inactive
GATC (GeneID 283459) | 0.6 | 5314 | inactive
ASIC3 (GeneID 9311) | -0.47 | 5594 | inactive

Targets above whose target name begins with S or s (2):
gene symbol | migration robust z-score | nuclei per well, duplicate mean | Outcome
SCN11A (GeneID 11280) | 0 | 5359 | inactive
SEMG1 (GeneID 6406) | -0.12 | 5719 | inactive
